Data source: PubChem BioAssay AID504744 (Drosophila RNAi Screening Center, 2011)

Assay: 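Identify dsRNAs that increase or decrease phospho-dAkt after insulin treatment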 (primary screen)
System: Drosophila Kc167 cells
Reagent: long dsRNA against Drosophila genes, 250 ng dsRNA per well of a 384-well plate
Timing: 3 days of knock-down, then overnight serum-free starvation before stimulation
Conditions: bovine insulin at 387 nM for 10 minutes after 12 h without serum
Measurement: 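In-cell antibody fluorescence for phospho-dAkt in each well over DNA-dye signal, with log2 residuals expressed as z-scores adjusted for cell count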
Active means: 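Under insulin, a gene counts as a hit if the average z-score of two replicates lies above 2.5 or below -2.5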
The deposit covers about 23,000 reagents; below is a random part of those that have a named target and a result. In the full data, 98 (0.43%) are marked active. 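Only hit calls are given; the phospho-dAkt signals, z-scores and hit direction were not deposited.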 Names joined by + are all predicted targets of the reagent. No sequences are given here.

CG31845 (retired record) [DRSC22257]
- call: inactive

Ada2b (transcriptional Adaptor 2b) [DRSC16531]
- call: inactive

CG7606 [DRSC13246]
- call: inactive

CG7606 [DRSC16268]
- call: inactive

Mef2 (Myocyte enhancer factor 2) [DRSC07468]
- call: inactive

Cpr65Au (Cuticular protein 65Au) [DRSC22738]
- call: inactive

nSMase (neutral sphingomyelinase) [DRSC08237]
- call: inactive

Irp-1A (Iron regulatory protein 1A) [DRSC16719]
- call: inactive

CG17024 (retired record) [DRSC02562]
- call: inactive

Mst36Fa (Male-specific transcript 36Fa) [DRSC21564]
- call: inactive

rump (rumpelstiltskin) [DRSC16480]
- call: inactive

Uxs (UDP-xylose synthase) [DRSC10941]
- call: inactive

Coprox (Coproporphyrinogen oxidase) [DRSC01996]
- call: inactive

CG31038 [DRSC15051]
- call: inactive

CG31038 [DRSC16326]
- call: inactive

CG31038 [DRSC16327]
- call: inactive

pigeon [DRSC03565]
- call: inactive

Drsl6 (Drosomycin-like 6) [DRSC08161]
- call: inactive

Gk1 (Glycerol kinase 1) [DRSC08533]
- call: inactive

Gk1 (Glycerol kinase 1) [DRSC08534]
- call: inactive

Gr28b (Gustatory receptor 28b) [DRSC02291]
- call: inactive

Gr28b (Gustatory receptor 28b) [DRSC02292]
- call: inactive

CG10029 [DRSC12498]
- call: inactive

Pax (Paxillin) [DRSC01703]
- call: inactive

Pax (Paxillin) [DRSC02651]
- call: inactive

Pax (Paxillin) [DRSC02652]
- call: inactive

CG10116 [DRSC09700]
- call: inactive

CG42307 + mus312 [DRSC11008]
- call: inactive

Sfp26Ad (Seminal fluid protein 26Ad) [DRSC00904]
- call: inactive

CG8191 + CG12379 [DRSC19451]
- call: inactive

CG17221 [DRSC00487]
- call: inactive

Khc (Kinesin heavy chain) [DRSC07448]
- call: inactive

Sugb (Sugar baby) [DRSC10815]
- call: inactive

DUBAI (Deubiquitinating apoptotic inhibitor) [DRSC07281]
- call: inactive

CG14762 [DRSC05073]
- call: inactive

CG14762 [DRSC06496]
- call: inactive

mgr (merry-go-round) [DRSC16099]
- call: inactive

CG5707 [DRSC08573]
- call: inactive

Nsun2 (NOP2-Sun domain family, member 2) [DRSC18662]
- call: inactive

2 neighbouring records from above:
nSMase (neutral sphingomyelinase) [DRSC08237]
- call: inactive

Irp-1A (Iron regulatory protein 1A) [DRSC16719]
- call: inactive
